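Primary screen of methionyl-tRNA synthetase; the read-out is not stated. Target: Methionyl-tRNA synthetase (putative), Leishmania donovani (UniProt E9BF75). The test concentration is not given. Values are per cent inhibition. Of about 68,000 compounds tested this way, about 24 (0.035%) reached 50% or more in at least one test.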

By UniProt entry, the sequences of proteins in these tests, tags left out.
UniProt E9BF75, entry or part of it: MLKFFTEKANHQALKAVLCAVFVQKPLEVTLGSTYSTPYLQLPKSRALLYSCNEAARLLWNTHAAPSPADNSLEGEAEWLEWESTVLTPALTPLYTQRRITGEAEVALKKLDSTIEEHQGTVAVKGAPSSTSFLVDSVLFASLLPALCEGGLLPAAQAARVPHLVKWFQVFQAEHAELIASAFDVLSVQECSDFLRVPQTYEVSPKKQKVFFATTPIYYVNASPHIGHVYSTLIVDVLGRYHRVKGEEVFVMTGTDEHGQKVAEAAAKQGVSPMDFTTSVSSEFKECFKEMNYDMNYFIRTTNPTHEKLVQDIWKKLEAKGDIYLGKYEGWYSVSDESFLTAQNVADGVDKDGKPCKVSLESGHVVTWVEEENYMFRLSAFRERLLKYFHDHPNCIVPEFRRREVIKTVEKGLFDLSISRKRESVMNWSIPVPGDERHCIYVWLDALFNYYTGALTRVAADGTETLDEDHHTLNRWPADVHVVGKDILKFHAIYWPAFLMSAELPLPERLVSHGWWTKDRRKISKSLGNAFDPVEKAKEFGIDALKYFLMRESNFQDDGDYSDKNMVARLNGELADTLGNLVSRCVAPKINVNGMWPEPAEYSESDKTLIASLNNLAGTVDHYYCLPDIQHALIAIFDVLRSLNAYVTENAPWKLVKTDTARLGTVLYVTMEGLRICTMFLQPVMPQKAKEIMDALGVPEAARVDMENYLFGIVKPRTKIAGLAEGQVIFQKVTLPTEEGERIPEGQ

All values are in %. The record does not define 0% and 100%; most values in the screen are far below 50% and negative numbers occur (in some assays of this library far below -100). The compounds are a random part of those screened.

compound	inhibition
Cc1ccc(NC(=O)C2=CN=S=N2)cc1	5.245%
COc1ccccc1CNc1ncnc2c1NC(=O)CN2	8.355%
CN(C)C[C@@H]1CN(C(=O)Cc2ccc3ccccc3c2)C[C@@H]1CO	5.882%
Cc1noc(C)c1S(=O)(=O)NC(=O)COc1cccc(C(C)C)c1	7.731%
COc1ccc(CNC(=O)NCCCNS(C)(=O)=O)cc1OC	17.48%
CCS(=O)(=O)CC(=O)NC1CCc2nccn2C1 (configuration not stated)	9.549%
CCC(=O)N1CCCCC[C@@H]2[C@@H]1[C@H](c1cccc(F)c1)CN2C	5.28%
O=C1CCC[C@]2(CN(S(=O)(=O)N3CCCCC3)C[C@H]2c2cccnc2)N1	18.35%
CCS(=O)(=O)N1CCc2c(nc(C3CCCN3)nc2NC)C1 (configuration not stated)	7.349%
CCc1ccc(CN2CCC3(CCCN(C(=O)c4cnccn4)C3)C2)o1 (configuration not stated)	10.96%
CCN1CCC2(CN(C(C)=O)CC23CCN(C(=O)N(C)C)CC3)C1=O (configuration not stated)	8.333%
CCOCC(=O)N1CCC(Oc2ccc(Cl)cn2)CC1	19.61%
Cc1csc2c(C3CCN(C(=O)Cn4cncn4)CC3)nc(C)n12	12.38%
CN(C)Cc1cnc(C2CCN(C(=O)c3cccc(Cl)c3)C2)[nH]1 (configuration not stated)	13.44%
Cc1csc(CCNc2ccc(C#N)cn2)n1	8.042%
CC(Cn1ccnc1)NC(=O)N(C)Cc1ccsc1 (configuration not stated)	11.54%
CCOc1ccccc1OC1CCN(C(=O)c2c[nH]nn2)CC1	16.2%
COc1ccc(-c2nc(CNC(C)Cn3cccn3)cs2)cc1 (configuration not stated)	4.872%
CN(C)C(Cn1ccnc1-c1nccn1C)c1ccccc1Cl (configuration not stated)	13.73%
Cc1nccn1C1CCCN(C(=O)c2cc(Cl)c3c(c2)OCO3)C1 (configuration not stated)	14.04%
CO[C@@H]1CCN(S(=O)(=O)N(C)C)[C@@H]2CN(Cc3ccncc3)C[C@@H]21	9.408%
Cc1ccc(C)c(OC2CCN(C(=O)c3ccc(C)[nH]c3=O)CC2)c1	12.24%
COc1ccnc(N2CCN(C(=O)c3cscn3)CC2)n1	10.68%
CCCc1nc(C(C)(C)NC(=O)C2CC(=O)N(CC(C)C)C2)no1 (configuration not stated)	22.91%
O=C(Nc1cnn(Cc2ccc(F)cc2Cl)c1)C1CC1	20.1%
CC(C)(C)c1nnc(CN2CCN(CC(O)c3ccccc3)CC2)o1 (configuration not stated)	7.042%
CCc1cccc(OC2CN(C(=O)[C@@H](N)[C@@H](C)O)C2)c1	6.301%
CC(C#N)CNC(=O)Nc1ccc(-c2ccc[nH]2)cc1 (configuration not stated)	2.005%
COCC1CC2(CCN(C(=O)c3ccc(F)cc3C)CC2)CO1 (configuration not stated)	-2.055%
CC(CN1CCOCC1)n1cncc1-c1cnn(Cc2ccccc2)c1 (configuration not stated)	9.884%
CCc1cnc(N2C[C@H]3C[C@H](C(=O)N4CCOCC4)[C@@H](C2)O3)nc1	9.384%
CCN(CC)S(=O)(=O)N1CCCC(c2nccn2Cc2ccncc2)C1 (configuration not stated)	4.416%
Cc1ccccc1N1CCCN(C(=O)CC2CN(C(C)C)CCO2)CC1 (configuration not stated)	7.05%
CC(=O)N1CCN(CCNC(=O)NC(C)Cn2ccnc2)CC1 (configuration not stated)	10.89%
COc1ccccc1OC1(C(=O)O)CCN(c2ncccc2F)CC1	19.88%
NC(=O)Cn1c(CO)cnc1SCc1ccccc1Cl	3.597%
COc1cc(C(N)=O)c(N(C)S(C)(=O)=O)cc1OC	9.045%
Cn1cc(-c2csc(N3CCSCC3)n2)cn1	13.11%
CCOc1ccccc1CNS(=O)(=O)c1ccc2c(c1)CCCC(=O)N2	10.08%
COCCN1CC2(CCOCC2)c2cc(NC(=O)C3CC=CC3)ccc21	9.87%
Cc1ncc(CNC(=O)Cc2ccc(Cl)cc2)c(C2CCCN2C)n1 (configuration not stated)	8.562%
CN(C(=O)OC(C)(C)C)C1CCN(C(=O)c2cc(Cl)c[nH]2)C1 (configuration not stated)	2.466%
Cc1ccc(C)c(CS(=O)(=O)CC(=O)Nc2ccc(F)cc2F)c1	2.557%
CCc1cccc(CC)c1NC(=O)c1ccccc1N(C)S(C)(=O)=O	15.19%
CN1CCc2c(sc3c2C(=O)NC(/C=C/c2ccccc2)N3)C1 (configuration not stated)	11.43%
O=C1OCCN1CC(=O)N1C[C@H]2CC[C@@H]1CN(C(=O)c1cccnc1)C2	8.505%
CN(C)C(=O)C1(Oc2ccc(Cl)cc2)CCNCC1	6.494%
Cc1ccc(OCC(O)Cn2ncc3cnn(C)c(=O)c32)cc1 (configuration not stated)	15.36%
Cc1ccc(-c2cc(C(=O)NCCCc3csc(N)n3)[nH]n2)s1	21.24%
Cc1cc(C(=O)NCc2ccnc(N3CCN(C)CC3)c2)no1	20%
O=C1CC2(CCN(C(=O)c3ccccn3)CC2)Oc2c(Cl)cc(Cl)cc21	10.83%
CN(Cc1ncnn1C)C(=O)c1ccccc1NCc1ccccc1	10.82%
F[C@@H]1CN(CC2CC2)C[C@@H]1OCc1nc2ccc(C(F)(F)F)cc2[nH]1	10.53%
CS(=O)(=O)N1C[C@@H]2CC[C@H](C1)N(CCC(=O)NCc1ccccc1F)C2	8.075%
CN(C)CCOc1ccc(CNC(=O)c2cccc(Cl)c2Cl)cc1	1.648%
Cn1cnc(S(=O)(=O)N2CCCC2c2cnccn2)c1 (configuration not stated)	14.19%
O=C(c1ccoc1)N1CCOC2(COCCN(CC3CC3)C2)C1 (configuration not stated)	13.19%
O=C(c1ccoc1)N1CCC2(C1)CN(c1ncc(F)cn1)C2	10.37%
Nc1nccnc1C(=O)NC1CCCN(Cc2c(F)cccc2F)C1 (configuration not stated)	12.57%
CCSc1cc(C(=O)NCCNC(=O)Cc2ccccc2)ccn1	14.97%
O=C1CO[C@H]2CN(Cc3ccc(C(F)(F)F)cc3)C[C@H]2N1	13.22%
COc1ccc(CCC(=O)Nc2ccc3ncn(C)c(=O)c3c2)cc1	11.67%
CCc1nccn1-c1cccc(C2CCCN2S(=O)(=O)N(C)C)n1 (configuration not stated)	7.294%
Cn1cc(C(=O)N2CC[C@@H]3[C@@H]2CCN3Cc2ccncc2)cn1	13.19%
O=C(c1ccc(-n2ccnc2)cc1)N1CCCC1	1.079%
O=C(NCC(Cc1cccc(F)c1)N1CCCC1=O)c1ccc(=O)[nH]n1 (configuration not stated)	16.38%
CCCOc1ccc(C(=O)Oc2cc(=O)n3cccc(C)c3n2)cc1	12.83%
CC(C)CS(=O)(=O)N1C[C@H]2C[C@H](C(=O)Nc3cccnc3)[C@@H](C1)O2	12.97%
CCC1C(=O)NCCN1c1cc(C)ncn1 (configuration not stated)	10.95%
CC(C)[C@H]1CN(S(=O)(=O)c2cccnc2)C[C@@H]1N	14.93%
COc1ccc(NC(=O)CCC2CCCN(S(=O)(=O)C3CC3)C2)cc1Cl (configuration not stated)	10.07%
CS(=O)(=O)N1CCCC(n2nnn(-c3ccccc3)c2=O)C1 (configuration not stated)	14.33%
CCCc1nc(N2CCCN3CCC[C@H]3C2)c2cnn(C)c2n1	18.4%
O=C(Cn1cccn1)N1CCc2[nH]nc(-c3ccc4c(c3)OCO4)c2C1	9.966%
Cn1ccnc1CN1CCC2(CC1)CCN(c1ccccc1)C2=O	0.5464%
Cc1nn(C)c(N(C)C)c1CNCc1cccnc1N1CCOCC1	1.84%
c1cnc(N2CCC3(CCN(Cc4cccnc4)CC3)CC2)nc1	7.333%
CCOC(=O)c1cccc(N2CCCC3(CCC(=O)N(C4CC4)C3)C2)n1 (configuration not stated)	23.99%
Cc1ccoc1C(=O)NC1CCN(CC(=O)N(C)c2ccccc2)CC1	13.71%
CCCC(C)C(=O)NCc1cn2cc(Br)ccc2n1 (configuration not stated)	19.01%
CCCc1noc(CN2CCN(CCC(C)C)CC2)n1	12.1%
CC(C)(C)NC(=O)C1CSCN1S(=O)(=O)c1cccc(F)c1 (configuration not stated)	8.374%
O=C(NCc1c(F)cccc1F)C1CN(C(=O)c2cnccn2)C1	10.79%
Cc1ccc(CNc2cc(N3CCCC3CO)ncn2)s1 (configuration not stated)	9.29%
COc1ccc(OC)c(C2SCC(=O)Nc3n[nH]cc32)c1 (configuration not stated)	16.43%

The first 9 entries again:

* Cc1ccc(NC(=O)C2=CN=S=N2)cc1 | 5.245%
* COc1ccccc1CNc1ncnc2c1NC(=O)CN2 | 8.355%
* CN(C)C[C@@H]1CN(C(=O)Cc2ccc3ccccc3c2)C[C@@H]1CO | 5.882%
* Cc1noc(C)c1S(=O)(=O)NC(=O)COc1cccc(C(C)C)c1 | 7.731%
* COc1ccc(CNC(=O)NCCCNS(C)(=O)=O)cc1OC | 17.48%
* CCS(=O)(=O)CC(=O)NC1CCc2nccn2C1 (configuration not stated) | 9.549%
* CCC(=O)N1CCCCC[C@@H]2[C@@H]1[C@H](c1cccc(F)c1)CN2C | 5.28%
* O=C1CCC[C@]2(CN(S(=O)(=O)N3CCCCC3)C[C@H]2c2cccnc2)N1 | 18.35%
* CCS(=O)(=O)N1CCc2c(nc(C3CCCN3)nc2NC)C1 (configuration not stated) | 7.349%

From ChEMBL document CHEMBL3988442, “University of Dundee, Small-Polar-MMV Screening Library” (2021).